In the supplement of paper PMC12819154, “High-throughput peptide-centric local stability assay extends protein–ligand identification to membrane proteins, tissues and bacteria” (Nature Structural & Molecular Biology, 2025) one finds log2 fold change data, which are given here for 10 targets.

Sequences of proteins named here, by UniProt entry; tags and fusion partners are left off. A change or cut given only in a name is not applied to a line headed by its entry.
UniProt Q99941: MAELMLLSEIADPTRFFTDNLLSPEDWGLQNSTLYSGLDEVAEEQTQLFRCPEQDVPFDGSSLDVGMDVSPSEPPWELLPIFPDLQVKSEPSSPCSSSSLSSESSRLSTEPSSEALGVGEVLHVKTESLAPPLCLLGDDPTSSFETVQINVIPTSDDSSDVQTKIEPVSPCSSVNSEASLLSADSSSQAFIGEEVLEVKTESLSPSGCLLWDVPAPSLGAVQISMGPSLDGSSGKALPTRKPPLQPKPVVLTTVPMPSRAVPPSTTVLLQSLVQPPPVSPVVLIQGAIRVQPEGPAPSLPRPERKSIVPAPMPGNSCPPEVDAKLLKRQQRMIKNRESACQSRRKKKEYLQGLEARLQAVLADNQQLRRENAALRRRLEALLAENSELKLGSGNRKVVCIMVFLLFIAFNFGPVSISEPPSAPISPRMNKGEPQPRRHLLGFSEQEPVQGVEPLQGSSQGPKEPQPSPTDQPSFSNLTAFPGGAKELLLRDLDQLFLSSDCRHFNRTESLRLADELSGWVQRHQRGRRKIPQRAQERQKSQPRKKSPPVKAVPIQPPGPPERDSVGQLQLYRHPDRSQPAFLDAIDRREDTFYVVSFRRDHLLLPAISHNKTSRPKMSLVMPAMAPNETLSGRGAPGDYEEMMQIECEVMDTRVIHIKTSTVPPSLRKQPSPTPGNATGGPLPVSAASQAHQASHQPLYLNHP
UniProt Q9BVG3: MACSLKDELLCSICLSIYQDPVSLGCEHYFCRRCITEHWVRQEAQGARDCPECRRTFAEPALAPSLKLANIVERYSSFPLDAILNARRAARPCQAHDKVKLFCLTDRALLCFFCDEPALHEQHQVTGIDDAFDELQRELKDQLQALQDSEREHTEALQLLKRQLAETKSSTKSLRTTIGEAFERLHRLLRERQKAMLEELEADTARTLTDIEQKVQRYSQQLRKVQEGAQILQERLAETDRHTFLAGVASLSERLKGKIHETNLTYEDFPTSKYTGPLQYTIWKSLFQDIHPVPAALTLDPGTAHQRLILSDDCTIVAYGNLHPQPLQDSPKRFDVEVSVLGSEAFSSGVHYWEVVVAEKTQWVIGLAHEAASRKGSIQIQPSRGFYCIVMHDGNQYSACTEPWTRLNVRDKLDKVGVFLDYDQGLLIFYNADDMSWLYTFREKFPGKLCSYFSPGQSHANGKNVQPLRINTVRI
UniProt Q99729: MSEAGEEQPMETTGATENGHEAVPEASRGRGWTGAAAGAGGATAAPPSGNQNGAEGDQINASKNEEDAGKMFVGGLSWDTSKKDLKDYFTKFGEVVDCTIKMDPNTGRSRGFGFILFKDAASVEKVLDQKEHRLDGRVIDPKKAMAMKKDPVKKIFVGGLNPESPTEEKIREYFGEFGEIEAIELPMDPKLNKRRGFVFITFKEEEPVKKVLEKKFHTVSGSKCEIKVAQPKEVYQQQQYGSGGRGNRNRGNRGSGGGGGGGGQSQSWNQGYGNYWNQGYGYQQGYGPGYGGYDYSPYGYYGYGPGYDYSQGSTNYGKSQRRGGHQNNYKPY
UniProt Q9BVN2: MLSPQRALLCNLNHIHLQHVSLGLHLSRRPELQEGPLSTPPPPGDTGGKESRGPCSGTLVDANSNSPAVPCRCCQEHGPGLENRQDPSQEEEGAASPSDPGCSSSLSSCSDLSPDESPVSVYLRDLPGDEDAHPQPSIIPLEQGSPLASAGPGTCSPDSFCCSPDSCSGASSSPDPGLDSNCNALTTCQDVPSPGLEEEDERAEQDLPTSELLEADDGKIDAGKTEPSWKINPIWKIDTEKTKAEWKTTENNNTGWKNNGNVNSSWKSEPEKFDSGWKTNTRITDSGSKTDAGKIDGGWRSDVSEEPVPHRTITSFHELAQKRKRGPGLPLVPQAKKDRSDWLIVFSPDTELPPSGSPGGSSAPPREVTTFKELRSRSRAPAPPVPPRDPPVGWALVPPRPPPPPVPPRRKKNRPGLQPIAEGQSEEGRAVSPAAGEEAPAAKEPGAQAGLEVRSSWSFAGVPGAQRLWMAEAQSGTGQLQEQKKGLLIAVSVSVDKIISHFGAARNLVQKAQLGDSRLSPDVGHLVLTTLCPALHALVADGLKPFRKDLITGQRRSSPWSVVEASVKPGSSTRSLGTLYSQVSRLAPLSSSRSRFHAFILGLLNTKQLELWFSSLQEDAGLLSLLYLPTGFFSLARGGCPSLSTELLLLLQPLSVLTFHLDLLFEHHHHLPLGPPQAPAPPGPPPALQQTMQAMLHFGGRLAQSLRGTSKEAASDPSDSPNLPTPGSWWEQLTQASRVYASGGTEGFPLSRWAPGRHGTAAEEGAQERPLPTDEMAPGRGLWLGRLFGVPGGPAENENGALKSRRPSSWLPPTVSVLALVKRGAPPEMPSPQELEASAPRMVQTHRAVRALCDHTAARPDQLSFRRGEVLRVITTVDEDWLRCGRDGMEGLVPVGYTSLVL
UniProt Q9BV73: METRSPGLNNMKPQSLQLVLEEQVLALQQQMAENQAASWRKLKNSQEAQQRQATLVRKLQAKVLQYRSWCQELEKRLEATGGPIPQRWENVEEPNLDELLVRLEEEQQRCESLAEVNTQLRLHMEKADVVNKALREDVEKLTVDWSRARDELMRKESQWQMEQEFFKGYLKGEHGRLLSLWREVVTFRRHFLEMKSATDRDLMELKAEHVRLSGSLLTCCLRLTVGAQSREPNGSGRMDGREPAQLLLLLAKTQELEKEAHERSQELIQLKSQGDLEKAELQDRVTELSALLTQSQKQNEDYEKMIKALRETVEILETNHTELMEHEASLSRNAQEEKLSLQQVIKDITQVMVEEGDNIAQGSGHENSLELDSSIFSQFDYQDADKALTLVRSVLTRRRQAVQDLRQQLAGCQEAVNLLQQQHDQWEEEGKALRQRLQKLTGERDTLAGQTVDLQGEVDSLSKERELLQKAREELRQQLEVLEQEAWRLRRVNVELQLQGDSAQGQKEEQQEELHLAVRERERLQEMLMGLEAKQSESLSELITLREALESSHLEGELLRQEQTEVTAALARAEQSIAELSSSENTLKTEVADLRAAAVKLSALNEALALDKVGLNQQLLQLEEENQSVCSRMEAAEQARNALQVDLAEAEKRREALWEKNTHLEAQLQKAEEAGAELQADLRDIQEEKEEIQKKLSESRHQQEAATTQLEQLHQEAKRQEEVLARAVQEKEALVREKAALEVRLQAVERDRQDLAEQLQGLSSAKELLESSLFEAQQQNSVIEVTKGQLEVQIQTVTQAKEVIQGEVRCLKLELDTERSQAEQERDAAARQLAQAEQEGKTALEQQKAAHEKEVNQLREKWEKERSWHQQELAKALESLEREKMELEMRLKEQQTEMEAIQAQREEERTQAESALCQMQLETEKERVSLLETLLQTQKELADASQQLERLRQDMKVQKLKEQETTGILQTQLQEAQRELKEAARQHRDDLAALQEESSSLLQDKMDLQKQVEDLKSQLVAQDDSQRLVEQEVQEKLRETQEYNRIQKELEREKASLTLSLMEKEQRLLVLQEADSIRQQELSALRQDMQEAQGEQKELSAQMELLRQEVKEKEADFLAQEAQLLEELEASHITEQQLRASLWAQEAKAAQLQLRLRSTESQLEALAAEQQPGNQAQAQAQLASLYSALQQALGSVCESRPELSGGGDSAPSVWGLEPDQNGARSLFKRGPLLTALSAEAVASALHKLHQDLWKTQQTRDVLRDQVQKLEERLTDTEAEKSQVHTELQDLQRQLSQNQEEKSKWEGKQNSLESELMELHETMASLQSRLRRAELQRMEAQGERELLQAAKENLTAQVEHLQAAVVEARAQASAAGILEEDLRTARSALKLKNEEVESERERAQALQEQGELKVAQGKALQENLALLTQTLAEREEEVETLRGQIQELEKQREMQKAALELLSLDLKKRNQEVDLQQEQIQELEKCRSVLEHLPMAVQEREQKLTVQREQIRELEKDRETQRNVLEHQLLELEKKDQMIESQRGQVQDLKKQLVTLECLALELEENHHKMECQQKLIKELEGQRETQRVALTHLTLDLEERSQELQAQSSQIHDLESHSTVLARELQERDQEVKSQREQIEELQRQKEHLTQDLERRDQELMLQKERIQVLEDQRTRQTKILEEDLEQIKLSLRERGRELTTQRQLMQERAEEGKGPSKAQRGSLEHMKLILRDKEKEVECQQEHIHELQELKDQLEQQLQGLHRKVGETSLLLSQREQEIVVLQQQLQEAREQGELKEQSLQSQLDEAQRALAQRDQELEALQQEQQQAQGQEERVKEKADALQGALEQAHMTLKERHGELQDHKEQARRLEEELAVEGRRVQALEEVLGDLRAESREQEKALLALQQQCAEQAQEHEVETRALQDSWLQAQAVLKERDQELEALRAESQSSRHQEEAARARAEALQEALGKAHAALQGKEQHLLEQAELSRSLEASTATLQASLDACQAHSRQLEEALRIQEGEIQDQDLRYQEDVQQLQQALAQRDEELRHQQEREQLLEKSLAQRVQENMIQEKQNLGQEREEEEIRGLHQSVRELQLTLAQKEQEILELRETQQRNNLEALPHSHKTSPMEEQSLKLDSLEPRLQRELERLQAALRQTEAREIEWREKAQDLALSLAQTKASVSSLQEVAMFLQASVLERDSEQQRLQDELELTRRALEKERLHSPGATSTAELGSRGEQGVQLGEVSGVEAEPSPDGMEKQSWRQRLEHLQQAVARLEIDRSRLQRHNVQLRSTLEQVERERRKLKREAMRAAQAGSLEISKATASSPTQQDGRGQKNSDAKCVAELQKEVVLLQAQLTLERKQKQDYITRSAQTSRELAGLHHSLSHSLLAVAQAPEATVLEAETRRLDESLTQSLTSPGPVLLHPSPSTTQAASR
UniProt Q9BRR0: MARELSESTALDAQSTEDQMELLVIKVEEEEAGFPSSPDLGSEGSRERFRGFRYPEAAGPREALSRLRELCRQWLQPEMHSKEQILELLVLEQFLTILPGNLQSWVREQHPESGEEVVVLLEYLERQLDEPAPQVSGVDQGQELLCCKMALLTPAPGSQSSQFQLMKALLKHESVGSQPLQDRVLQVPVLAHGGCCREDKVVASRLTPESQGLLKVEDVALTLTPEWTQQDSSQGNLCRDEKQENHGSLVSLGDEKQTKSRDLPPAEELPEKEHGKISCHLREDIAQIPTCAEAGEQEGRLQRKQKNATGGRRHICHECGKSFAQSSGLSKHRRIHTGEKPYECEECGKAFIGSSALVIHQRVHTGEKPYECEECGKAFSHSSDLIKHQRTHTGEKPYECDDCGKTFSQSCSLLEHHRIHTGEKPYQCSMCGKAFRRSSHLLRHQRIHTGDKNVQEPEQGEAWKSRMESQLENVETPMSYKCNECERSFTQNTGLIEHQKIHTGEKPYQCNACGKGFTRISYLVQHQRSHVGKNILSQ
UniProt Q9BUK6: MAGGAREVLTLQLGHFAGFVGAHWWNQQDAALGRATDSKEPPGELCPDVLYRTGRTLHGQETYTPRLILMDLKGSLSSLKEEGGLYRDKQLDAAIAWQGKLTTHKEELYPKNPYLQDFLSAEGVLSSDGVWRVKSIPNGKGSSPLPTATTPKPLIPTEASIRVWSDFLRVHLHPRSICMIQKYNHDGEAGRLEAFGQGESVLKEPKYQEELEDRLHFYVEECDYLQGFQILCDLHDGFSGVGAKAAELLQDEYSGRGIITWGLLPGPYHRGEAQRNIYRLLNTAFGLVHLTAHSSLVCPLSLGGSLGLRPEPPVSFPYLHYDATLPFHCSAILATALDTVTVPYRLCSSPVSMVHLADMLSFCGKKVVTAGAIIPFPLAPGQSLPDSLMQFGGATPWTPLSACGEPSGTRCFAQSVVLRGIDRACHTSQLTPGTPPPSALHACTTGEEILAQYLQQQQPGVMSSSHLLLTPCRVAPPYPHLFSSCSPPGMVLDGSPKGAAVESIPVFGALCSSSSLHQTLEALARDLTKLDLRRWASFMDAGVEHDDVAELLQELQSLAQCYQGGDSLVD
UniProt Q9BQ04: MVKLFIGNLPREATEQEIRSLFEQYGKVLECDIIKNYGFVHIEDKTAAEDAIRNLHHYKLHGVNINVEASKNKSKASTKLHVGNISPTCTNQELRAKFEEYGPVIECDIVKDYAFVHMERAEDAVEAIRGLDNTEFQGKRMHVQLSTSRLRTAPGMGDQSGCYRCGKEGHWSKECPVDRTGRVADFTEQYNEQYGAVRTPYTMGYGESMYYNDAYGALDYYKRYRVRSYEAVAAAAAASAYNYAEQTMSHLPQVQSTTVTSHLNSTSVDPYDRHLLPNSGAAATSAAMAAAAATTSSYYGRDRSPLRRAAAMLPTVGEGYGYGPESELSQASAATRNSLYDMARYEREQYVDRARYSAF

This is one part of the list. Small differences around the control level are noise.

Compound in this test: CN[C@@H]1C[C@H]2O[C@@](C)([C@@H]1OC)n1c3ccccc3c3c4c(c5c6ccccc6n2c5c31)C(=O)NC4 [staurosporine]
The test is described as follows: log2 fold change of tryptic peptide abundance, ligand vs vehicle (limited proteolysis) (log2 ratio); higher = more trypsin-susceptible (destabilized). The note with it: ligand concentration: 20 uM; sample: K562 cleared lysate; digestion: 4 min, 22 C (HT-PELSA RT4min, Orbitrap Astral).
For the target “ATF6B (peptide sequence: LSTEPSSEALGVGEVLHVK, peptide start residue: 107) (UniProt Q99941)”, the log2 fold change was determined as 0.33. As for “UniProt Q9BVG3 (peptide sequence: TFAEPALAPSLK, peptide start residue: 56)”, the figure is 0.317. As for “HNRNPAB (peptide sequence: MFVGGLSWDTSKK, peptide start residue: 71) (UniProt Q99729)”, the figure is -0.118; as for “AKAP9 (peptide sequence: SQSSASLIWR, peptide start residue: 1763) (UniProt Q99996)”, -0.246. In the case of “RUSC1 (peptide sequence: FHAFILGLLNTK, peptide start residue: 596) (UniProt Q9BVN2)”, the log2 fold change was -0.391. The figure for “CEP250 (peptide sequence: ENLTAQVEHLQAAVVEAR, peptide start residue: 1351) (UniProt Q9BV73)” is 0.463. The figure for “ZKSCAN3 (peptide sequence: VLQVPVLAHGGCCREDK, peptide start residue: 184) (UniProt Q9BRR0)” is -0.282. The figure for “MSTO1 (peptide sequence: LILMDLK, peptide start residue: 67) (UniProt Q9BUK6)” is 0.263. With “RBM4B (peptide sequence: VADFTEQYNEQYGAVR, peptide start residue: 183) (UniProt Q9BQ04)”, the log2 fold change is -0.244.

In the case of “KATNB1 (peptide sequence: KGHDTMCVVLTSR, peptide start residue: 493) (UniProt Q9BVA0)”, the log2 fold change is -0.251.
